Assay [1] has as its target full-length MOB1B (1-216) (mouse) (UniProt Q8BPB0). Nature of the assay: AUC; sedimentation velocity, 20 °C, 19 μM protein, 20 mM Tris-HCl (pH 7.5), 0.1 M NaCl, scanned at 280 nm; both purified.
Assay [2] shares this target. Description: AUC; sedimentation velocity, 20 °C, 200 μM full-length MOB1B, 20 mM Tris-HCl (pH 7.5), 0.1 M NaCl, scanned at 300 nm; both purified.
The target of assay [3] is T1, double-mutant T12D/T35D MOB1B (1-216) (mouse, UniProt Q8BPB0 1-216, T12D | T35D).
T1 construct: MOB1B, mouse, residues 1-216, with T12D and T35D; everywhere else it is T12D/T35D; also called phosphomimic (T12D/T35D) double-mutant; MOB1B(T12/35D); source: E. coli, purified by the same procedure as full-length MOB1B (GST removed); not shown: GST, N-terminal, cleaved
T1 sequence (looked up): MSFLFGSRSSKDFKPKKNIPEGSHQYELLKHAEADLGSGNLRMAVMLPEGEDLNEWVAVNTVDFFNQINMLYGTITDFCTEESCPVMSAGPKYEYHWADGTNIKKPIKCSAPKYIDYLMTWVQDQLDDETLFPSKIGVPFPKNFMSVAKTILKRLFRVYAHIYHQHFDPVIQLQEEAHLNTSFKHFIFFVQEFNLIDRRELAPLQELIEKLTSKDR
Description: AUC; sedimentation velocity, 20 °C, 19 μM protein, 20 mM Tris-HCl (pH 7.5), 0.1 M NaCl, scanned at 280 nm; both purified.

The target in assay [4] is T2, N-terminal truncated MOB1B (33-216) (mouse, UniProt Q8BPB0 33-216).
T2 construct: MOB1B, mouse, residues 33-216; also called N-terminal 32-residue truncated form; N-truncated MOB1B; source: E. coli, purified (Glutathione Sepharose 4B, HRV 3C digestion, HiTrap Q gradient, Superdex 75pg); not shown: GST, N-terminal, cleaved
T2 sequence (looked up): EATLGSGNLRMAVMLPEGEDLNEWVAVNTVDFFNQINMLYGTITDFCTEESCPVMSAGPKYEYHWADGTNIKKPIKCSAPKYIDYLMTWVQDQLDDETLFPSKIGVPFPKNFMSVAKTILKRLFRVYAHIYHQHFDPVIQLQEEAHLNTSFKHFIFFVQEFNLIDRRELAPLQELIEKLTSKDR
Described as above.

Positions count from the first letter of the chain named. In names and notes the source's numbering stands. Results are given in words; binding and its absence hold for the method and conditions named.

B1: full-length MOB1B (1-216) (protein, UniProt Q8BPB0 1-216)
chain: T1 sequence (looked up) with D12T, D35T
Regarding B1, the binding entry is given as “no binding (tested: 19 μM)” in assay [1] and “no binding (tested: 200 μM)” in assay [2].

B2: double-mutant T12D/T35D MOB1B (1-216) (protein, UniProt Q8BPB0 1-216)
chain: T1 sequence (looked up)
Consider B2, for which the binding result in assay [3] was “no binding (tested: 19 μM)”.

B3: N-terminal truncated MOB1B (33-216) (domain or fragment, UniProt Q8BPB0 33-216)
chain: T2 sequence (looked up)
Regarding B3, the binding entry in assay [4] is recorded as “no binding (tested: 19 μM)”.

These data come from PMC4917820, “Structural basis for autoinhibition and its relief of MOB1 in the Hippo pathway” (Scientific Reports, 2016).
